Results are given in words; binding and its absence hold for the method and conditions named. In cells and extracts the contact can be indirect. Some binding calls cover weakened binding; strength is not graded here.
Target: T1, caspase-1 (Casp1) (mouse (endogenous in BMDM)), P29452
T1 chain: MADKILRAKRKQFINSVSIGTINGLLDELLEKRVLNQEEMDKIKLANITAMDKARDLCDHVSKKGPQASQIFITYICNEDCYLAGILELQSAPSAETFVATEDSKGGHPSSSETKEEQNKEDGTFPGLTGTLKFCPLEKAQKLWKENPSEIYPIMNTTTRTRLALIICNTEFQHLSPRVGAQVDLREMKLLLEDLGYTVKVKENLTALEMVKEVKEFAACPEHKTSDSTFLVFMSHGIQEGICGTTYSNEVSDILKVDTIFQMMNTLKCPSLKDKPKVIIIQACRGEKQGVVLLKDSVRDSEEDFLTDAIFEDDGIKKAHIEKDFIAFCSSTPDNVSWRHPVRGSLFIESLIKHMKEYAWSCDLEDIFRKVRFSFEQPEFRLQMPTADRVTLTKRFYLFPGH
Test: proximity ligation; PLIC on acetone-fixed mouse BMDM (F4/80+CD11b+), primed with LPS (1 ug/ml, 2 h) and activated with ATP (5 or 10 mM), compared with non-activated cells; single monoclonal anti caspase-1 with PLA Mouse PLUS and Mouse MINUS probes
Settings: remark: other sources report otherwise

B1: caspase-1 (Casp1), P29452 1-402 (enzyme)
chain: T1 chain
**Q.** With B1 as the binder, how does the binding read?
**A.** Its binding is “binds”.

Reference: paper PMC5688095
